Experimental data: PubChem BioAssay AID1508588 (Peter MacCallum Cancer Centre, 2020)

Screen: 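Genome-wide search for knock-downs that heighten vemurafenib action in melanoma cells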 (primary screen)
Cell system: human WM266.4 melanoma cells (BRAF V600 mutant)
Reagent: siRNA pool against human genes, 40 nM
Time to read-out: 96 h from transfection to read-out
Treatment: vemurafenib 300 nM (about IC25), added 48 h after transfection, for 48 h; comparison arm got DMSO vehicle only
Measurement: 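Ratios to non-targeting siRNA for cell gain, counted as DAPI nuclei after minus before drug and averaged over two replicates, and for absorbance-read medium lactate per cell; both binned into fold-change classes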
Scale: cell gain with vemurafenib: higher = more cell gain than with non-targeting siRNA; lactate per cell with vemurafenib: higher = more lactate made per cell
Active means: 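a knock-down counts as enhancing when its fold-change classes with vehicle and with vemurafenib, taken together, show a stronger drug effect on cell gain or lactate per cell; exact class pairs not stated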
Meaning of the calls: active = enhances vemurafenib effect; inactive = no enhancement seen
The whole screen tested about 18,000 reagents; this is an unselected part. In the full data, 790 (4.4%) got an active call. 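Calls rest on a combination of fold-change classes in drug and vehicle arms, not all shown here.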 Unmarked entries are inactive. No sequences are given here.

Target gene | cell gain with vemurafenib | lactate per cell with vemurafenib
CFAP20DC | 0.78 | 1.38
CLCN2 | 0.59 | 0.38
CEACAM7 | 0.72 | 1.01
TNNT1 | 0.48 | 0.7
SND1 | 0.87 | 0.67
PAIP2 | 0.75 | 1.48
SMC6 | 1.14 | 0.92
USP9Y | 1.13 | 0.54
SP6 | 0.36 | 1.48
METRN | 0.93 | 0.83
RAC3 | 1.01 | 0.82
KCNK18 | 0.68 (active) | 0.18
IFNA6 | -0.04 | 0.52
CNMD | 0.32 | 1.08
TMEM132E-DT | 0.66 | 1.17
CMTR1 | 0.59 | 0.39
NAIP | 0.37 | 0.73
CACNB3 | 0.47 | 0.94
GALNT12 | 0.84 | 0.56
HSD17B6 | 0.62 | 0.88
ZNF304 | 0.37 | 1.66
UBN1 | 0.73 | 0.96
CEMIP | 1.2 | 0.73
CIMAP1C | 0.49 | 1.33
GCM1 | 0.96 | 1.06
RRM2B | 0.9 | 0.62
CACNA1G | 0.45 | 1.08
SNX32 | 0.56 | 0.88
MEIS1 | 0.67 | 0.67
KCTD8 | 0.28 (active) | 0.24
RIMS2 | 0.58 | 1.47
SAP130 | -0.1 | 1.25
ROBO1 | 0.3 | 1.16
SUGP2 | 0.18 | 0.26
ELP5 | 0.96 | 0.31
TSLIG3B | 0.5 | 1.52
TRAPPC1 | 0.37 (active) | -0.05
EGR3 | 0.56 | 0.83
PLCZ1 | 0.98 | 0.94
EXOSC6 | 0.21 | 1.37
TFR2 | 0.71 | 0.47
CDC50B | 0.87 | 0.62
LRRC2 | 0.51 (active) | 0.37
AQP10 | 0.82 | 0.78
TMEM62 | 0.41 | 1.11
ZNF575 | 0.79 | 0.66
HHLA2 | 0.45 (active) | 0.08
FAM114A2 | 0.88 | 0.69
AP1M2 | 0.89 | 0.32
ZNF260 | 0.76 | 0.86
FAM120B | 0.69 | 1.13
CD55 | 0.84 | 0.7
ABCC12 | 1.01 | 1
ATP9B | 1.02 | 0.48
CDK3 | 0.54 | 0.56
GFM1 | 1.07 | 0.55
PIGT | 0.22 | 0.28
OR4C11 | 0.25 | 0.9
CLU | 1.29 | 0.38
PDLIM5 | 0.69 | 1.42
ZNF277 | 0.83 | 0.91
CLIP1 | 0.67 | 0.71
GJC1 | 0.88 | 1.01
KCNJ10 | 0.66 | 0.9
PPP2R5E | 0.1 | 0.98
EFHC1 | 0.71 | 1.13
RBM26 | 0.4 | 1.57
RIPK2 | 0.34 | 1.07
ADIPOQ | 0.8 | 0.72
SLX1A | 0.78 | 0.88
EXTL3 | 0.76 | 0.84
CAD | 0.81 | 1.36
ZBTB26 | 0.72 (active) | 0.46
OR4E2 | 0.22 | 0.39
OR6C6 | 1.09 | 0.73
LCMT2 | 0.74 | 0.28
ZWILCH | 0.98 | 0.46
COX6B1 | 0.03 | 0.84
FFAR4 | 1.23 | 0.87
OR7D2 | 0.37 | 2.03
SRD5A2 | 0.1 | 1.75
UBL4A | 0.64 | 1.23
OPLAH | 0.1 | 1.56
OASL | 0.13 | 1.52

Records listed so far called active, once more:
Target gene | cell gain with vemurafenib | lactate per cell with vemurafenib
KCNK18 | 0.68 (active) | 0.18
KCTD8 | 0.28 (active) | 0.24
TRAPPC1 | 0.37 (active) | -0.05
LRRC2 | 0.51 (active) | 0.37
HHLA2 | 0.45 (active) | 0.08
ZBTB26 | 0.72 (active) | 0.46
